# Data from PMC10322906.
# Sequences of proteins named here, by UniProt entry; tags and fusion partners are left off.
# UniProt P49407: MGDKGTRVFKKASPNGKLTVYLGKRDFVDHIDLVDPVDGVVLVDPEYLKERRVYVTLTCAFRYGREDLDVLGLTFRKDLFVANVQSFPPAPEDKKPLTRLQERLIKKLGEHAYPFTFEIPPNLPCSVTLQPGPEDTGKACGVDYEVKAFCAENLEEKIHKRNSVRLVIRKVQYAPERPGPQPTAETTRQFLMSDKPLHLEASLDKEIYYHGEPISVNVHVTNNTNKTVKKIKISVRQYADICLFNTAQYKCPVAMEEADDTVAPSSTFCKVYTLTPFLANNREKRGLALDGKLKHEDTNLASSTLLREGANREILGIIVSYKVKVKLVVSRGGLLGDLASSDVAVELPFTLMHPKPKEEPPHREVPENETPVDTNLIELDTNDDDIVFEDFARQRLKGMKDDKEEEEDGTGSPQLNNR
# No constants are given. Whether binding was seen depends on the method and setting. Binding seen in cells or lysates may run through a third protein. Some binding calls cover weakened binding; strength is not graded here.
# Target: AGTR1-RLuc8 (UniProt P30556)
# Experiment: FRET or BRET; BRET2: HEK293T cells transfected with GPCR-RLuc8 and β-arrestin1/2-GFP2; agonist 30 min at 37 °C, Coelenterazine 400a 5 µM
row,Substance,binding
1,β-arrestin1-GFP2 (from UniProt P49407 1-418),binds
2,β-arrestin2-GFP2 (from UniProt P32121 1-409),binds
